Experimental data: patent US5516525A, “Vitamin D derivative feed compositions and methods of use” (University of Georgia Research Foundation, Inc., priority 1994, dated 1996)
The name of at least one read-out is uncertain.

Test system: bone ash
Assay: bone ash (Example 2)
Format: in vivo, chicken (Peterson X Arbor Acre cockerels)
Details: D3 […], derivatives 10 μg/kg feed
Experimental: The basal diet used is described above in Table 2. Disulfiram was added to the basal diet of some chickens as indicated in Table 10 at a level of 30 mg/kg of feed.
After the tibia was scored for incidence and severity of tibial dyschondroplasia, the left tibia was removed for a bone ash determination on the fat-free dried bone.

C=C1/C(=C\C=C2/CCC[C@]3(C)[C@@H]([C@H](C)CCC(O)C(C)(C)O)CC[C@@H]23)C[C@@H](O)C[C@@H]1O (some centres unmarked) [1,24,25-(OH)2 D3, 1,24,25-trihydroxycholecalciferol]
Bone ash (Study 4): 36.07

C=C1/C(=C\C=C2/CCC[C@]3(C)[C@@H]([C@H](C)CC[C@@H](F)C(C)(C)O)CC[C@@H]23)C[C@@H](O)C[C@@H]1O [1,25-(OH)2-24R-FD3, 1,25-dihydroxy-24-fluorocholecalciferol]
Bone ash (Study 4): 35.48

C=C1/C(=C\C=C2/CCC[C@]3(C)[C@@H]([C@H](C)CCCC(C)C)CC[C@@H]23)C[C@@H](O)C[C@@H]1O [1-OHD3, 1-hydroxycholecalciferol]
Bone ash (Study 4): 36.77

C=C1CC[C@H](O)C/C1=C/C=C1\CCC[C@]2(C)[C@@H]([C@H](C)CCC(O)C(C)(C)O)CC[C@@H]12 (some centres unmarked) [24,25-(OH)2 D3, 24,25-dihydroxycholecalciferol, reference compound]
Bone ash (Study 4): 35.53

C=C1CC[C@H](O)C/C1=C/C=C1\CCC[C@]2(C)[C@@H]([C@H](C)CCCC(C)(C)O)CC[C@@H]12 [25-OHD3, 25-hydroxycholecalciferol]
Bone ash (Study 1, basal diet): 40.2 | Bone ash (Study 1, with disulfiram 30 mg/kg feed): 39.7 | Bone ash (Study 2, basal diet): 40.6 | Bone ash (Study 2, with disulfiram 30 mg/kg feed): 40.5
